Experimental data taken from paper PMC5961436, “PKA and PKC Modulators Affect Ion Channel Function and Internalization of Recombinant Alpha1 and Alpha1-Beta Glycine Receptors” (Frontiers in Molecular Neuroscience, 2018).

Tests used:
human homomeric α1 GlyRs = assay: Whole-cell patch-clamp of glycine induced currents, modulators in the intracellular buffer, HEK293 cells expressing GlyR α1; type: cell-based; details: 0.5 μM modulator in intracellular buffer, mean ± SEM
Protocol: (§1) HEK293 cells were grown in 10 cm tissue culture Petri dishes in Eagle minimal essential medium (Sigma-Aldrich Chemie GmbH, Munich, Germany) supplemented with 10% FBS (Invitrogen, Karlsruhe, Germany) and penicillin/streptomycin (Sigma-Aldrich Chemie GmbH, Munich, Germany) at 5% CO2 and 37°C in a water saturated atmosphere. For electrophysiological experiments, cells were plated on poly-L lysine treated glass coverslips in 6 cm dishes. Transfection was performed 1 day after cell passage using Gen-Carrier (Epoch Lifesciences, Sugarland, TX, USA): 1.3 μg of receptor DNA, 1.3 μg of green fluorescent protein DNA, and 2.6 μl GenCarrier were used, following the manufacturer’s instructions. Measurements were performed 2–4 days after transfection. HEK293 cells used for protein expression and internalization analysis were transfected using a modified calcium phosphate precipitation method. In brief, a mixture of plasmid DNA, CaCl2 (2.5M), 0.1× TE buffer and 2× HBS (50 mM HEPES, 12 mM glucose, 10 mM KCl, 280 mM NaCl, 1.5 mM Na2HPO4) was applied onto the cells for 6 h. A GlyR α1 to GlyR β ratio of 1:2 was used for co-expression. Transfection medium was replaced by fresh medium after 6 h. Immunocytochemical stainings were always done 24 h after transfection, biotinylation experiments were performed 48 h after transfection.
(§2) using a nonlinear algorithm in Microcal Origin. Here, Iglycine is the current amplitude at a given glycine concentration, Isat is the maximum current amplitude at saturating concentrations of glycine, EC50 is the glycine concentration at half-maximal current responses, and nHill is the Hill coefficient. Currents from each individual cell were normalized to the maximum response at saturating glycine concentrations. Significance of differences between EC50 values were determined using one-way ANOVA with p ≤ 0.05 (*) and p ≤ 0.01 (**) taken as significant. In all experiments, EC50 values were determined for each individual cell from a non-linear fit of dose response data to the logistic equation. An unweighted average ± standard error (SEM) was calculated from all individual EC50 values, without considering the fitting errors.
(§3) For time course analysis, a series of EC50 data was recorded from each cell. The first concentration-response curve, defined as t = 0, was recorded immediately after establishing the whole-cell configuration and positioning the cell in front of the delivery tube. […] Further recordings were made at t = 3 min, t = 6 min and t = 10 min (not attained with all cells). […] Since control EC50 values varied between different days of plating and between batches of cells, measurements with kinase modulators were always compared to control measurements recorded on the same day and from the same batch of cells.

[1] = test system: human heteromeric α1-β GlyRs; assay: Whole-cell patch-clamp of glycine induced currents, modulators in the intracellular buffer, HEK293 cells expressing GlyR α1-β; type: cell-based; details: 0.5 μM modulator in intracellular buffer, mean ± SEM
Protocol: as §1, §2, §3

SMILES	nH (human homomeric α1 GlyRs)	nH [1]
C=C[C@@]1(C)CC(=O)[C@]2(O)[C@@]3(C)[C@@H](O)CCC(C)(C)[C@@H]3[C@H](O)[C@H](OC(C)=O)[C@@]2(C)O1 [Forskolin]	2.20 ± 0.26	1.95 ± 0.14
O=S(=O)(NCCNC/C=C/c1ccc(Br)cc1)c1cccc2cnccc12 [H-89]	2.10 ± 0.27	2.31 ± 0.21
CCCCCCCCCCCCCC(=O)O[C@@H]1[C@@H](C)[C@@]2(O)[C@@H](C=C(CO)C[C@]3(O)C(=O)C(C)=C[C@@H]23)[C@@H]2C(C)(C)[C@]12OC(C)=O [PMA, phorbol-12-myristate-13-acetate]	1.70 ± 0.11	2.00 ± 0.19
O=C1NCc2c1c1c3ccccc3[nH]c1c1[nH]c3ccccc3c21 [Staurosporine aglycon]	1.96 ± 0.17	1.82 ± 0.12
